Measurements reported in patent US20240400644A1 (ACROIMMUNE GUANGZHOU BIOTECH, published 2024).
These are yes or no findings as the source states them, for the method shown. Some results given as binding are weak or reduced against the parent protein; the word gives no strength.

Target: T1, HMGB1-His tag protein (human, UniProt P09429 1-215, limits assumed)
T1 construct: Bought, HEK293 cell derived; also called human HMGB1; HMGB1-His protein; not shown: His tag
T1 sequence (looked up): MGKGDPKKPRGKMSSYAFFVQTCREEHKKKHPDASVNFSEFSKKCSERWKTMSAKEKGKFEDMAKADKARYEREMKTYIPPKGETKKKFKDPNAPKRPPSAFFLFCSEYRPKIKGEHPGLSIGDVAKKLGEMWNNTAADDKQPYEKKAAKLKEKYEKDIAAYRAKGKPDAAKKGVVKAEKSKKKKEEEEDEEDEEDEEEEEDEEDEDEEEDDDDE
Experiment: ELISA: HMGB1-His coated at 0.1 µg/mL, CD24Fc titrated 2-fold, HRP goat anti-human IgG-Fc, TMB

For SETTTGTSSNSSQSTSNSGLAPNPTNATTKAAG (Fc fusion, UniProt P25063 27-59, looked up, not shown: Fc part) [CD24Fc (producing cell not stated)], the binding was “binds”.
